PubChem BioAssay AID504467 (National Center for Advancing Translational Sciences (NCATS), 2011)
Screen size: about 330,000 compounds; about 7,700 (2.3%) were called active. Inconclusive results, whose numbers are uncertain, are shown with a selection of clear calls. Calls follow the shape of the dose curve; as a rule, active = well fitted inhibition curve with a large enough effect; inconclusive = small, poorly fitted or top-dose-only effect, or effect the other way; inactive = flat fitted curve, though single readings scatter. Potencies beside an inconclusive call are fits to weak or partial responses and may not hold up.

Assay: qHTS screen for small molecules that inhibit ELG1-dependent DNA repair in human embryonic kidney (HEK293T) cells expressing luciferase-tagged ELG1; also: nearly all actives have a fitted effect of over 55% in size
Conditions: HEK293T ELG1-luciferase reporter, luminescence, 16 h, DNA damage induced by 5-fluorouridine; series mostly up to 46.1 µM
In short: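 In this reporter screen, reduction of luminescence relative to DMSO vehicle indicated activity. Compounds and 5-fluorouridine were added together to 2,000 cells per well, incubated for 16 hr at 37 °C, then developed with ONE-Glo.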
Potency is read from the fitted curve at half-maximal effect.

Structure (SMILES) | Potency
COc1ccc(C2C(=O)N(C3CCCCCC3)CC(=O)N2Cc2ccccc2)cc1OC (configuration not stated) | inactive
Fc1ccc2nc(N3CCCCC3)sc2c1 | inconclusive: 7.31 µM [activator, partial curve]
COc1ccc(N2CCN(C(=O)CSc3nc4[nH]ncc4c(=O)n3-c3cccc4ccccc34)CC2)cc1 | inconclusive: 25.9 µM [inhibitor, partial curve, poor fit]
O=C(NCCn1cccn1)C1CCC(=O)N(CCc2cccc(F)c2)C1 (configuration not stated) | inconclusive: 16.4 µM [activator, single point]
O=C(NC(=S)NCc1ccccc1)c1cccnc1 | inactive
COc1ccc(N=Nc2nc3ccc(Br)cc3n2C)cc1 | inconclusive: 10.3 µM [activator, partial curve]
CCOC(=O)N1CCN(S(=O)(=O)c2ccc(OCC)cc2)CC1 | inactive
Cc1cccn2c(=O)c(C=C(C#N)C#N)c(N3CCN(c4cccc(Cl)c4)CC3)nc12 | inconclusive: 18.3 µM [inhibitor, single point]
CCCCNc1c(-c2ccc(OC)c(SC(C)CC)c2)nc2cc(C)ccn12 (configuration not stated) | inconclusive: 20.6 µM [inhibitor, single point]
O=C1CCC/C(=N/NC(=O)c2sc3ccccc3c2Cl)C1 | inconclusive: 18.3 µM [activator, single point]
COc1cccc(OCc2cc(/C=N/Nc3ccc(C(=O)O)cc3)ccc2OC)c1 | inconclusive: 1.83 µM [activator, full curve]
CCOc1ccccc1C(=O)Nc1nnc(CC)s1 | inconclusive: 25.9 µM [inhibitor, partial curve, poor fit]
CCOC(=O)c1cc2n(c1/N=C/N(C)C)-c1ccccc1C2=O | inconclusive: 29.1 µM [inhibitor, single point]
Cc1ccc2nc(NC(=O)COC(=O)c3ccc(Br)o3)sc2c1 | inconclusive: 23.1 µM [activator, single point]
O=C(Nc1ccc([N+](=O)[O-])cn1)c1ccc(Br)o1 | inconclusive: 13 µM [activator, partial curve]
Cc1cccc(OCC(O)Cn2c(NCCCOC(C)C)nc3c2c(=O)[nH]c(=O)n3C)c1 (configuration not stated) | inconclusive: 23.1 µM [inhibitor, partial curve, poor fit]
Oc1ccc(C(c2nnnn2CCc2ccccc2)N2CCN(c3nc4ccccc4s3)CC2)cc1 (configuration not stated) | inconclusive: 23.1 µM [inhibitor, single point]
O=C(O)c1cn(Cc2ccccc2)c2ccc(Cl)cc2c1=O | inactive
CCC(C)NC(=O)c1ccccc1NC(=O)C1COc2ccccc2O1 (configuration not stated) | inconclusive: 18.3 µM [inhibitor, single point]
O=C(O)CCC(=O)Nc1ccc(N=Nc2ccccc2)cc1 | inconclusive: 20.6 µM [activator, single point]
C=C(C)CSc1nc(N)c2c3c(sc2n1)CCC3 | inconclusive: 9.2 µM [activator, partial curve]
CC(C)(C)[C@@H]1CCC(=O)N(CC[C@H](N=[N+]=[N-])c2ccccc2)CC1 | inconclusive: 10.3 µM [activator, partial curve]
Cc1ccc(-c2cc(C(F)F)n3ncc(C(=O)NCc4ccco4)c3n2)cc1 | inconclusive: 4.11 µM [inhibitor, full curve]

Structure (SMILES) | Potency
C/C(=N\NC(=O)c1cccs1)C(C)(C)C | inconclusive: 18.4 µM [activator, single point]
COc1cccc(-c2nnc(SCC(=O)OC(C)C)n2N)c1 | inconclusive: 13 µM [activator, partial curve, poor fit]
CCn1c2ccccc2c2cc(NC(=O)c3cccc(OC)c3OC)ccc21 | active: 14.6 µM
CCCn1cnc2c(c1=O)c1nc3ccccc3nc1n2Cc1ccccc1OC | inconclusive: 2.91 µM [inhibitor, full curve]
C#CCn1c(=NC(=O)c2ccc(S(=O)(=O)N3CCCc4ccccc43)cc2)sc2cc(S(N)(=O)=O)ccc21 | inactive
Nc1nonc1-n1nnc(C(=O)N/N=C/C=C/c2ccccc2)c1CSC1=NCCS1 | inconclusive: 18.3 µM [inhibitor, single point]
C[C@@H]1CN([C@@H](C)CO)C(=O)c2cccc(NC(=O)Nc3ccc(F)cc3)c2O[C@@H]1CN(C)Cc1ccc(Oc2ccccc2)cc1 | inconclusive: 18.3 µM [activator, single point]
COc1ccccc1C(=O)NC(=O)CSc1nc2nc(C)cc(C)n2n1 | inconclusive: 2.31 µM [activator, partial curve, poor fit]
O=C(CCCSc1nc2ccccc2[nH]1)Nc1nnc(-c2ccccc2)o1 | inconclusive: 20.6 µM [inhibitor, partial curve, poor fit]
COc1ccc(N=C2SCC(c3ccccc3)=NN2C)cc1 | inconclusive: 20.6 µM [activator, partial curve, poor fit]
O=C1CCC(C(=O)OCC(=O)N2N=C3/C(=C/c4ccccc4)CCCC3C2c2ccccc2)N1 (configuration not stated) | inactive
Nc1nc(-c2ccccc2)c(N=Nc2ccccc2Cl)s1 | inactive
COc1ccc(-c2nn(-c3ccccc3)cc2/C=N/Nc2ccccn2)cc1OC | active: 14.6 µM
C#Cc1ccc([C@H]2C=C(C(=O)Nc3ccccc3)O[C@@H](OCc3ccc(CO)cc3)C2)cc1 | inactive
CCc1ccc(C(=O)COC(=O)c2ccc(-c3nnc(-c4ccccc4)o3)cc2)cc1 | inconclusive: 10.3 µM [activator, partial curve]
O=C(C1CCCCC1)N1CCCc2ccccc21 | inconclusive: 18.4 µM [activator, partial curve, poor fit]
CCN(CC)c1ccc(/C=C(/C#N)C(=O)NCc2ccccc2)o1 | inconclusive: 14.6 µM [activator, partial curve]
O=[N+]([O-])c1cc(C=Nc2ccc3ccccc3c2)ccc1Br | inconclusive: 29.1 µM [activator, single point]
Cc1nc(Nc2cccc(F)c2)c2oc3ccccc3c2n1 | inconclusive: 9.2 µM [activator, partial curve, poor fit]
O=C(CCc1nc2ccccc2s1)OCC(=O)c1ccccc1 | inconclusive: 13 µM [activator, partial curve]
Cc1ccc(C(=O)Nc2ccc3ccccc3c2)cc1 | inconclusive: 0.164 µM [activator, full curve]
CC(C)CCN(C(=S)Nc1cccc(F)c1)C(C)c1cccs1 (configuration not stated) | inconclusive: 25.9 µM [inhibitor, single point]
CCN1C(=O)CCC(C(=O)O)C1c1ccc(OC)cc1 (configuration not stated) | inactive

Structure (SMILES) | Potency
COc1cccc(/C=N/Nc2snc(SC)c2C#N)c1O | inconclusive: 4.61 µM [activator, full curve]
CCOC(=O)CC(NC(=O)c1cccs1)c1ccc(OCC)cc1 (configuration not stated) | inconclusive: 29.1 µM [inhibitor, single point]
CCN(CC)CCN1C(=O)C(O)=C(C(=O)c2sc(C)nc2C)C1c1cccnc1 (configuration not stated) | inconclusive: 29.1 µM [activator, single point]
O=C(c1ccc(OC2CCN(CCc3ccccc3)CC2)cc1)N1CCCC(CO)C1 (configuration not stated) | inactive
Cc1ccc(S(=O)(=O)N(C)C)cc1NC(=O)C(C)NC(C)c1cccs1 (configuration not stated) | inconclusive: 0.103 µM [inhibitor, full curve, poor fit]
C=CCCc1ccc(C#N)c(SCc2c(C(=O)OCC)c3cc(OC(C)=O)c(Br)cc3n2C)n1 | active: 2.31 µM
COc1ccc(NC2=C(Cl)C(=O)N(c3ccccc3)C2=O)c(OC)c1 | inactive
CC(=O)Nc1ccc(S(=O)(=O)Nc2ccc3c(c2)OCCO3)cc1 | inactive
Cc1ccc(NC(=O)Cc2nn(C)c(=O)c3ccccc23)cc1F | inconclusive: 0.731 µM [inhibitor, full curve, poor fit]
CC(=O)Oc1cccc(/C=N\NC(=O)C(=O)N/N=C/c2cccc(OC(C)=O)c2)c1 | inconclusive: 20.6 µM [activator, partial curve, poor fit]
COc1ccc(CNC(=O)C2CCCN(Cc3nc(-c4cccc(C)c4)oc3C)C2)cc1 (configuration not stated) | inconclusive: 29.1 µM [inhibitor, single point]
Clc1ccc(-n2ncc3c(N4CCCC4)ncnc32)cc1 | inconclusive: 0.164 µM [activator, full curve]
CCOC(=O)N1CCC(NC(=O)CCc2nc(-c3ccc(C)cc3)no2)CC1 | active: 13 µM
Cc1c(NC(=O)c2c(NC(=O)CNC3CC3)sc3c2CCCC3)c(=O)n(-c2ccccc2)n1C | inactive
CC(C)CCn1c(=O)c2ccccc2n2c(CN3C(=O)NC4(CCC(C)CC4)C3=O)nnc12 (configuration not stated) | inconclusive: 10.3 µM [activator, partial curve, poor fit]
O=C(N1CCN(c2ccccn2)CC1)N1c2ccccc2Sc2ccccc21 | inactive
COc1ccc(N2CCN(C(=O)CCc3nnc4ccc(N5CCOCC5)nn34)CC2)cc1 | inactive
Clc1ccccc1OCCn1cnc2ccccc21 | inconclusive: 14.6 µM [activator, partial curve]
CCOC(=O)c1c(C)oc2cc(Br)c(OC(=O)N3CCOCC3)cc12 | active: 23.1 µM
COc1cccc(-c2sc3cc(OC)c(OC)cc3c2-c2ccc(OCCN3CCCCC3)cc2)c1 | inconclusive: 14.6 µM [inhibitor, partial curve]
Cc1ccc2cc3cc(C(=O)N4CCCCC4C)oc3nc2c1 (configuration not stated) | inconclusive: 2.59 µM [activator, partial curve]

Some of these compounds in order of length of the SMILES, ascending.
Structure (SMILES) | Potency
Clc1ccccc1OCCn1cnc2ccccc21 | inconclusive: 14.6 µM [activator, partial curve]
COc1cccc(/C=N/Nc2snc(SC)c2C#N)c1O | inconclusive: 4.61 µM [activator, full curve]
Clc1ccc(-n2ncc3c(N4CCCC4)ncnc32)cc1 | inconclusive: 0.164 µM [activator, full curve]
Cc1ccc2cc3cc(C(=O)N4CCCCC4C)oc3nc2c1 (configuration not stated) | inconclusive: 2.59 µM [activator, partial curve]
CCOC(=O)CC(NC(=O)c1cccs1)c1ccc(OCC)cc1 (configuration not stated) | inconclusive: 29.1 µM [inhibitor, single point]
O=C(N1CCN(c2ccccn2)CC1)N1c2ccccc2Sc2ccccc21 | inactive
CCOC(=O)c1c(C)oc2cc(Br)c(OC(=O)N3CCOCC3)cc12 | active: 23.1 µM
CCOC(=O)N1CCC(NC(=O)CCc2nc(-c3ccc(C)cc3)no2)CC1 | active: 13 µM
O=C(c1ccc(OC2CCN(CCc3ccccc3)CC2)cc1)N1CCCC(CO)C1 (configuration not stated) | inactive
CCN(CC)CCN1C(=O)C(O)=C(C(=O)c2sc(C)nc2C)C1c1cccnc1 (configuration not stated) | inconclusive: 29.1 µM [activator, single point]
COc1ccc(N2CCN(C(=O)CCc3nnc4ccc(N5CCOCC5)nn34)CC2)cc1 | inactive
CC(=O)Oc1cccc(/C=N\NC(=O)C(=O)N/N=C/c2cccc(OC(C)=O)c2)c1 | inconclusive: 20.6 µM [activator, partial curve, poor fit]
